Assay results from the supplement of paper PMC12819154, “High-throughput peptide-centric local stability assay extends protein–ligand identification to membrane proteins, tissues and bacteria” (Nature Structural & Molecular Biology, 2025).
The other results are listed elsewhere or left out. Small differences around the control level are noise.

By UniProt entry, the sequences of proteins in these tests, tags left out. Where a name states a change or a piece, a line headed by the entry shows the natural chain unless it says otherwise.
UniProt Q9UJX4, whole entry: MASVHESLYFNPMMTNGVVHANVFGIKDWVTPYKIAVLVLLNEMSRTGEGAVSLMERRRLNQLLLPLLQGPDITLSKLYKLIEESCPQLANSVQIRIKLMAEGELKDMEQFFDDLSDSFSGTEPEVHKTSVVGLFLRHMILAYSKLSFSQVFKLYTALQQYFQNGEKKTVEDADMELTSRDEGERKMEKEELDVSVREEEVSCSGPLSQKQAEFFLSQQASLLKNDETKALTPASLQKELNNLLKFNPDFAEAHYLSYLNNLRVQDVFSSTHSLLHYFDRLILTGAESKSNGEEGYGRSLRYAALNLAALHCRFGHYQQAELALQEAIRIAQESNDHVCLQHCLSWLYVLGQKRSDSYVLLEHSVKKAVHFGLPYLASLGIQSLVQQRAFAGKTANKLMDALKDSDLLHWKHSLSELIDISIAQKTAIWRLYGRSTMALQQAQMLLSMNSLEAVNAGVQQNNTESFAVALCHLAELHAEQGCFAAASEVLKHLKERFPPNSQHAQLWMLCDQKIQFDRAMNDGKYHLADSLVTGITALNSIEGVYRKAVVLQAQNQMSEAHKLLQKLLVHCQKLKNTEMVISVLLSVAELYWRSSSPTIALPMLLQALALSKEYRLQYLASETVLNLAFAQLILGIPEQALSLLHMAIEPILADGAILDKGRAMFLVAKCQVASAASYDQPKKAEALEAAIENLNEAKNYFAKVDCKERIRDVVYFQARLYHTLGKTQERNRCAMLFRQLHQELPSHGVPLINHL
UniProt Q9UMR2: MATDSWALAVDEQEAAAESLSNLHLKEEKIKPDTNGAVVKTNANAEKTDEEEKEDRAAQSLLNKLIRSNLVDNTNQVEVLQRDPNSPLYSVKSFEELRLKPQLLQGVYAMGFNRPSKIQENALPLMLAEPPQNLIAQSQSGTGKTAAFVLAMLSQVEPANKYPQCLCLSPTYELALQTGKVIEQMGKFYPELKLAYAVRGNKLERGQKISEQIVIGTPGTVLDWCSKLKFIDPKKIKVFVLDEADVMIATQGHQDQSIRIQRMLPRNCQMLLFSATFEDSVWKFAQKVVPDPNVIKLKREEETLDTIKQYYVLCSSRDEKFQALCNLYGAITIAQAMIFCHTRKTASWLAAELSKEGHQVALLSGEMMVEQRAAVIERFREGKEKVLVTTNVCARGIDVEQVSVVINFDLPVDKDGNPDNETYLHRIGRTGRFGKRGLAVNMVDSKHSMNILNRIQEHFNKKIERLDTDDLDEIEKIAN
UniProt Q9UJK0: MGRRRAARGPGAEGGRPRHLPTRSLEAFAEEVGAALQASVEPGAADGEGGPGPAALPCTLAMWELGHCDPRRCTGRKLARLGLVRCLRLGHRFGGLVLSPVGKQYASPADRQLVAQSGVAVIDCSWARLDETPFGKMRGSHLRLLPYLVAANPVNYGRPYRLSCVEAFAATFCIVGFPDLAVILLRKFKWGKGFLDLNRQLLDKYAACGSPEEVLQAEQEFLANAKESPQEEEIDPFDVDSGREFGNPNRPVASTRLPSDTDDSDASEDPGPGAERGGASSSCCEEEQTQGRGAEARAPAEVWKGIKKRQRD
UniProt Q9UKX7: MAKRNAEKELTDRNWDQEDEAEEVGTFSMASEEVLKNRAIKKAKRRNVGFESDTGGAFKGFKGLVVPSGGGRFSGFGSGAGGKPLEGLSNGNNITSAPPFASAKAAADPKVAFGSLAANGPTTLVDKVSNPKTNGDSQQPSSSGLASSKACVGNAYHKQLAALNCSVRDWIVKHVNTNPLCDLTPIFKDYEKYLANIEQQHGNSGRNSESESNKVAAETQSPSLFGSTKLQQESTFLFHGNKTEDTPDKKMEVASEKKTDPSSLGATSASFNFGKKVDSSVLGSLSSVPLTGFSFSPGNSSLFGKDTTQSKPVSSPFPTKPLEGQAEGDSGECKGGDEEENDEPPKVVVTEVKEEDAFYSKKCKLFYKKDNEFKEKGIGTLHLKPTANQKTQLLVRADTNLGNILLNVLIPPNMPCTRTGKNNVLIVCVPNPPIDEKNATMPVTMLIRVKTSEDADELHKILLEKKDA
UniProt Q9UPT9: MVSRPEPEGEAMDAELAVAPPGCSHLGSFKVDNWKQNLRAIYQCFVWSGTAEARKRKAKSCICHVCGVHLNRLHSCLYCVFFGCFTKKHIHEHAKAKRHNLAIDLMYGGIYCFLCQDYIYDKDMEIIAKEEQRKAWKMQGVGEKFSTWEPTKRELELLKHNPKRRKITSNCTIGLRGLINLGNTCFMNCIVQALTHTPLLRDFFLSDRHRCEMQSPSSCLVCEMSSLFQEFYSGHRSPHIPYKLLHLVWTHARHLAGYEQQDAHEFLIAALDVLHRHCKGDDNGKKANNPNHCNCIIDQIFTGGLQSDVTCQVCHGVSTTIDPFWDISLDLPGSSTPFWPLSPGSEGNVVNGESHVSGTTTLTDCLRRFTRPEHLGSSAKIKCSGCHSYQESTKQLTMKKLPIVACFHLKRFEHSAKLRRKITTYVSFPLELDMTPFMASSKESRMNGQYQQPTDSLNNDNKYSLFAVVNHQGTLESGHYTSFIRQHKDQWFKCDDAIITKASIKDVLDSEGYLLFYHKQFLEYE
UniProt Q9ULD5: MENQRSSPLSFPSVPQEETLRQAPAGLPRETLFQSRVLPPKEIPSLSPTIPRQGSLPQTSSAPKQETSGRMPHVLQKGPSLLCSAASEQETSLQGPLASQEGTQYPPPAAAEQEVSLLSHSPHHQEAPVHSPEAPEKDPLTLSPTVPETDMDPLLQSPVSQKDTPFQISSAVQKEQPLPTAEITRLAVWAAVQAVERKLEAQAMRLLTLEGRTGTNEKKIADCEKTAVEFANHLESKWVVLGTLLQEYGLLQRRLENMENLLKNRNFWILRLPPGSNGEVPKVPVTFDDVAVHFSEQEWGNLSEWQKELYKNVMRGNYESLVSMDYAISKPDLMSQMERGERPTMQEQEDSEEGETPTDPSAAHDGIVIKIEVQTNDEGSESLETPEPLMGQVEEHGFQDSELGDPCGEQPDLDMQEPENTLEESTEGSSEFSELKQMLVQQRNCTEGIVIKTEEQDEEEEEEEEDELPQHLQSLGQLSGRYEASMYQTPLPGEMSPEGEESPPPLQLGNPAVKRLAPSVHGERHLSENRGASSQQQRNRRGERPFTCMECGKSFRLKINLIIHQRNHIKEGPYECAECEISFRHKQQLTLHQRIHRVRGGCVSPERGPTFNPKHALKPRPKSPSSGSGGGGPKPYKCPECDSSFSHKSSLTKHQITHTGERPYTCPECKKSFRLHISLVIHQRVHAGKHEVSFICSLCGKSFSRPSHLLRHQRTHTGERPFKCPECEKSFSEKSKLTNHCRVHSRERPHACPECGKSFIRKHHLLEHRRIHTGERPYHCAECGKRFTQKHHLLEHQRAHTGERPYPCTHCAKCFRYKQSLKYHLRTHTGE
UniProt Q9UJC3, whole entry: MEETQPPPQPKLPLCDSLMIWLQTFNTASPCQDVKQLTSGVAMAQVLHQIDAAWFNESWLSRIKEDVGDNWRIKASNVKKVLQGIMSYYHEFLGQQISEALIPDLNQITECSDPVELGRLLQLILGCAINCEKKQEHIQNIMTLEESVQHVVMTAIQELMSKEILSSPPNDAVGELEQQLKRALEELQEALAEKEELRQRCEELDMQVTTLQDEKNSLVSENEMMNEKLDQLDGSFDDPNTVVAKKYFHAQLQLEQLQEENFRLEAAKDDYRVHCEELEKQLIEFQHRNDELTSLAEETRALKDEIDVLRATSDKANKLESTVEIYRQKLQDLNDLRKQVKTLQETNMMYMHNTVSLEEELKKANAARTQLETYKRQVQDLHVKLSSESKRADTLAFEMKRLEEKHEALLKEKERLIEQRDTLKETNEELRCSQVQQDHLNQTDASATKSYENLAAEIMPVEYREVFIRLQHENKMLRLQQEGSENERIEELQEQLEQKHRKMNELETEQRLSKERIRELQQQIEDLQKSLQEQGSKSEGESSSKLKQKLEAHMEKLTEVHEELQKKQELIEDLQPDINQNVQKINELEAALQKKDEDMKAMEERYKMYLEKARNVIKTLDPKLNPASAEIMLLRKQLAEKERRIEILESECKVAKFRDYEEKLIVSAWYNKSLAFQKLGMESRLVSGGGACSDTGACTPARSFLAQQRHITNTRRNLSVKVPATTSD
UniProt Q9UQ88: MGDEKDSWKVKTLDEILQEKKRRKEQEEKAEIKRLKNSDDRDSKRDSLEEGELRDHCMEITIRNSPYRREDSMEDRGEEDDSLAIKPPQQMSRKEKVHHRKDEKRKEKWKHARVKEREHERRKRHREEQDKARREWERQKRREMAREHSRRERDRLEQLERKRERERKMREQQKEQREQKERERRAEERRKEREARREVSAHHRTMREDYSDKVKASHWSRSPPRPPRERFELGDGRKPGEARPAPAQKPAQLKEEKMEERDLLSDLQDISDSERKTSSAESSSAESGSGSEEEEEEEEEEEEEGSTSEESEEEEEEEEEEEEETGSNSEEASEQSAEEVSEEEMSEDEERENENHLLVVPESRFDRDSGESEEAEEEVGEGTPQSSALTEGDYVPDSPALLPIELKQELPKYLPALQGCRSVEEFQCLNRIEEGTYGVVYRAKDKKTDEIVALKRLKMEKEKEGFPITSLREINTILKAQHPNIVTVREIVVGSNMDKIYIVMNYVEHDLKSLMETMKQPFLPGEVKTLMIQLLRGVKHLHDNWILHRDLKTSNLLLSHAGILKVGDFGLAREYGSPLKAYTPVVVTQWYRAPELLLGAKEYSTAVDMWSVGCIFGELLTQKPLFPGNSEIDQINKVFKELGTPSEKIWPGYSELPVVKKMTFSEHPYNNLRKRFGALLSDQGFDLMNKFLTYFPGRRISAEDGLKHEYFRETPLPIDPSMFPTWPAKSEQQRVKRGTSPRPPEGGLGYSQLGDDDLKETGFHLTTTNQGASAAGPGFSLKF
UniProt Q9UK99: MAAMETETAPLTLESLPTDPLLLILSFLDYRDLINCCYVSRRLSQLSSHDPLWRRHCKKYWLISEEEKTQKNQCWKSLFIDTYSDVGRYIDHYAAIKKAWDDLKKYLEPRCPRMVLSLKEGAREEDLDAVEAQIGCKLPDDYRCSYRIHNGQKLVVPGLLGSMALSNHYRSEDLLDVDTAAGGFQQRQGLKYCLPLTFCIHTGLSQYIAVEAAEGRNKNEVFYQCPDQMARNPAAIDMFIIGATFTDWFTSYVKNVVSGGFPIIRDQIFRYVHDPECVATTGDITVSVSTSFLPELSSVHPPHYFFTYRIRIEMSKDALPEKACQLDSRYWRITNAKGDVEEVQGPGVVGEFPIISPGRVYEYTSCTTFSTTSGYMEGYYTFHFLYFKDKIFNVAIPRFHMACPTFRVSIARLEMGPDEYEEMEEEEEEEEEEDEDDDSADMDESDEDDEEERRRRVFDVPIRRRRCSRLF
UniProt Q9UJL9: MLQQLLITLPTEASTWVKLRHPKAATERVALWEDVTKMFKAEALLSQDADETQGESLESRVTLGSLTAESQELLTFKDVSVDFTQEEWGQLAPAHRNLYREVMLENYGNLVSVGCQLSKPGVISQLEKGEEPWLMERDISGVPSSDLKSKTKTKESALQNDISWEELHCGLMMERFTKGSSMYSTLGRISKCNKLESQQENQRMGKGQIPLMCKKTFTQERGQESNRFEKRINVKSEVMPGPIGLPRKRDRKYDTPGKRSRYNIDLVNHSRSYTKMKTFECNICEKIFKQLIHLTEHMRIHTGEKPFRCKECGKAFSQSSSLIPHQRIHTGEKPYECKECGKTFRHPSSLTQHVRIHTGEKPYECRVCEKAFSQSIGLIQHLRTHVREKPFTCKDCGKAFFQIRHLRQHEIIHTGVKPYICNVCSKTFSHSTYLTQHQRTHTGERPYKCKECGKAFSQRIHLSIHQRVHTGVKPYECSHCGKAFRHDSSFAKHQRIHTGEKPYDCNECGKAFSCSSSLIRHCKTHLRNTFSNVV

compound: Cc1nc(Nc2ncc(C(=O)Nc3c(C)cccc3Cl)s2)cc(N2CCN(CCO)CC2)n1 [dasatinib]; assay: log2 fold change of tryptic peptide abundance, ligand vs vehicle (limited proteolysis) (log2 ratio); higher = more trypsin-susceptible (destabilized); conditions: ligand concentration: 5 uM; sample: K562 cleared lysate

Row | Target | log2 fold change
1 | ANAPC5 (peptide sequence: KAEALEAAIENLNEAK, peptide start residue: 683) (UniProt Q9UJX4) | -0.405
2 | DDX19B (peptide sequence: VVPDPNVIK, peptide start residue: 287) (UniProt Q9UMR2) | -0.0932
3 | BAZ1B (peptide sequence: FSDFLLDPYK, peptide start residue: 288) (UniProt Q9UIG0) | 0.202
4 | UniProt Q9UJK0 (peptide sequence: GPGAEGGRPR, peptide start residue: 9) | 0.605
5 | NUP50 (peptide sequence: GIGTLHLKPTANQK, peptide start residue: 377) (UniProt Q9UKX7) | -0.147
6 | USP22 (peptide sequence: QHKDQWFKCDDAIITK, peptide start residue: 486) (UniProt Q9UPT9) | 0.359
7 | UniProt Q9ULD5 (peptide sequence: DTPFQISSAVQK, peptide start residue: 163) | 0.34
8 | HOOK1 (peptide sequence: LEAAKDDYR, peptide start residue: 261) (UniProt Q9UJC3) | 0.0988
9 | UniProt Q9UQ88 (peptide sequence: SVEEFQCLNR, peptide start residue: 422) | 0.12
10 | FBXO3 (peptide sequence: NKNEVFYQCPDQMAR, peptide start residue: 217) (UniProt Q9UK99) | 0.378
11 | UniProt Q9UJL9 (peptide sequence: VALWEDVTK, peptide start residue: 29) | 0.463

Taken from above:
log2 fold change, UniProt Q9UQ88 (peptide sequence: SVEEFQCLNR, peptide start residue: 422) reads 0.12
log2 fold change, DDX19B (peptide sequence: VVPDPNVIK, peptide start residue: 287) (UniProt Q9UMR2) reads -0.0932
